Data reported in PMC6331118.

By UniProt entry, the sequences of proteins in these tests, tags left out.
UniProt P62820: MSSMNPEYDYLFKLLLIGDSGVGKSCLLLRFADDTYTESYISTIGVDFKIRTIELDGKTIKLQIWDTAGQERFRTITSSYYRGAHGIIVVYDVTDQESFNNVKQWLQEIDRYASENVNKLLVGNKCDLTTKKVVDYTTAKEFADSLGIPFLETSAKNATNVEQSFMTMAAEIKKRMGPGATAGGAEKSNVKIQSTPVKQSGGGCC

Assays:
GFP-Rab32 wt = biological target: T1, GFP-Rab32 wt (UniProt Q13637); experiment: co-IP; GFP-Trap kit; IHKE-1 lysate in 10 mM Tris pH 7.5, 150 mM NaCl, 0.5 mM EGTA, 0.5% NP40; blot against SNX6
T1 sequence: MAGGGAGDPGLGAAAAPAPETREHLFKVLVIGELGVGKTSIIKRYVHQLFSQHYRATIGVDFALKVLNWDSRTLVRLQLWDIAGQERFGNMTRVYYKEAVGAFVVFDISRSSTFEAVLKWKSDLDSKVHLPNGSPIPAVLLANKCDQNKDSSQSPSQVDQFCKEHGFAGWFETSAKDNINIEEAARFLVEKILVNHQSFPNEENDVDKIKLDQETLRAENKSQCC

GST-Rab1A wt = GST-Rab1A wt (UniProt P62820); experiment: pull-down; 5 μg GST fusion on glutathione agarose (or GST-Trap) beads, incubated with IHKE-1 lysate overnight; blot against SNX6; only the target purified
GST-Rab32 Q85L = biological target: T2, GST-Rab32 Q85L (UniProt Q13637); experiment: as above
T2 sequence: T1 sequence with Q85L

GST-Rab32 wt = biological target: T3, GST-Rab32 wt (UniProt Q13637); experiment: as above
T3 sequence: T1 sequence

GST-Rab38 Q69L = biological target: T4, GST-Rab38 Q69L (UniProt P57729); experiment: as above
T4 sequence: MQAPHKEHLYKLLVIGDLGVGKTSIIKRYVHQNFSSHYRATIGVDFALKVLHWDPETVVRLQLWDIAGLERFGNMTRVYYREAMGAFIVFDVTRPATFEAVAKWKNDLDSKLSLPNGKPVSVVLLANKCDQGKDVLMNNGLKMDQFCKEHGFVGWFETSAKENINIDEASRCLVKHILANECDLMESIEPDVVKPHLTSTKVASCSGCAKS

GST-Rab38 wt = biological target: T5, GST-Rab38 wt (UniProt P57729); experiment: as above
T5 sequence: T4 sequence with L69Q

6his-Rab38^WT (1–181) = biological target: T6, 6his-Rab38^WT (1–181) (UniProt P57729); experiment: pull-down; direct pull-down: 1 mg GppNHp- or GDP-bound 6his-Rab38 (1-181) mixed with 1 mg cleaved SNX6 PX domain, Ni-NTA agarose, 4°C, 15 min; 10 mM Tris pH 8, 300 mM NaCl, 10 mM imidazole, 5 mM MgCl2; SDS-PAGE; both purified
T6 sequence: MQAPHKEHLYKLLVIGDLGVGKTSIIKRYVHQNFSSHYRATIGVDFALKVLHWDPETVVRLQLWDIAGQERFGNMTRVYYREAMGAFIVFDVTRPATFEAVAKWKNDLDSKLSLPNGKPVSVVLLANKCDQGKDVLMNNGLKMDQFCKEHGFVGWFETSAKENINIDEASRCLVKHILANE

Substance	binding (GFP-Rab32 wt)	binding (GST-Rab1A wt)	binding (GST-Rab32 Q85L)	binding (GST-Rab32 wt)	binding (GST-Rab38 Q69L)	binding (GST-Rab38 wt)	binding (6his-Rab38^WT (1–181))
endogenous SNX6 (IHKE-1 cells) (from UniProt Q9UNH7-1)	binds	no binding	binds	binds	binds	binds	
SNX6 (PX domain, residues 1–193) (from UniProt Q9UNH7-1) (domain or fragment)							binds

Where a chain is given by its changes, count along the chain named. No constants are given. Whether binding was seen depends on the method and setting. For some of these results: A result given as binding can be weak or reduced; the word gives no strength. For some of these results: Where a sequence is shown, tags or fusion partners need not be part of it. For some of these results: In cells and extracts the contact can be indirect.
